Holding throughout (experiment): affinity purification with mass spectrometry; co-IP of endogenous proteins of human NP cells with anti-TFEB, anti-PPP1CA or anti-SUV39H2 antibody and protein A/G beads, 4 °C overnight, 5 washes with NP-40 lysis buffer, SDS-PAGE, LC-MS/MS
Experiment [1] deals with protein phosphatase 1 catalytic subunit alpha (PPP1CA), endogenous in nucleus pulposus cells (human (endogenous in human NPCs)) (UniProt P62136).
Experiment [2] addresses protein lysine methyltransferase suppressor of variegation 3-9 homologue 2 (SUV39H2), endogenous in nucleus pulposus cells (human (endogenous in human NPCs)) (UniProt Q9H5I1).
The target in experiment [3] is transcription factor EB (TFEB), endogenous in nucleus pulposus cells (human (endogenous in human NPCs)) (UniProt P19484).

Protein sequences, listed by entry. Tags and fused reporters are not part of them.
UniProt P62136: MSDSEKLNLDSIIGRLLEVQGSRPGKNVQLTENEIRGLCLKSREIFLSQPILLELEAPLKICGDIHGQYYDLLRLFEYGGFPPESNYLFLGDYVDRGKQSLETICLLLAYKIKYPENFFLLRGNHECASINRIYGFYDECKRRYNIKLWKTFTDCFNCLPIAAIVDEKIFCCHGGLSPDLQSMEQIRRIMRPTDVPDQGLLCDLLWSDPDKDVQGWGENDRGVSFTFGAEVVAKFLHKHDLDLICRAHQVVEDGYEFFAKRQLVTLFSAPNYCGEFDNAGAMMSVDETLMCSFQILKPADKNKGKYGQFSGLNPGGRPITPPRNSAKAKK
UniProt Q9H5I1: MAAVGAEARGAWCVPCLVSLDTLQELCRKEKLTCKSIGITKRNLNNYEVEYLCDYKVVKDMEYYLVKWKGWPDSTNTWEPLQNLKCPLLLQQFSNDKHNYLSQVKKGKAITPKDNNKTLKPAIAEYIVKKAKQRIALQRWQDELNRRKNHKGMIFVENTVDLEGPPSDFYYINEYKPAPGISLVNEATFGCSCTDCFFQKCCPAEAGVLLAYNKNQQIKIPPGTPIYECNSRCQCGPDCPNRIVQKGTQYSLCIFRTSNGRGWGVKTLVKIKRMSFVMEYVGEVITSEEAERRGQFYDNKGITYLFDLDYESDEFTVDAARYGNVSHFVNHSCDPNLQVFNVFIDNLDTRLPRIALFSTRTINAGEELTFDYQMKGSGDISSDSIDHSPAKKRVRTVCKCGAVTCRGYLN
UniProt P19484: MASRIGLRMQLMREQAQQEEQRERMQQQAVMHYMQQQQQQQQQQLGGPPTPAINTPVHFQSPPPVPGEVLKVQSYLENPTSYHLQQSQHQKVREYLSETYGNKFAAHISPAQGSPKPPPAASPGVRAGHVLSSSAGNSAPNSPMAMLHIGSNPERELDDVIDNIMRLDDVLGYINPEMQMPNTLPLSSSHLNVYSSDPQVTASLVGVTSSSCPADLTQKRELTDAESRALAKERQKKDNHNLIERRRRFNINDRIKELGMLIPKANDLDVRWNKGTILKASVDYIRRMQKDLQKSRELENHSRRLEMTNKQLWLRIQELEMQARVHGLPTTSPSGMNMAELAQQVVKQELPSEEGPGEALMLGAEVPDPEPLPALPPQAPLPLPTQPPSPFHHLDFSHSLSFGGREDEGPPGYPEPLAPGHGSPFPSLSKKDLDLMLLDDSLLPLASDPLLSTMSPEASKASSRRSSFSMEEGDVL
UniProt Q96SB3: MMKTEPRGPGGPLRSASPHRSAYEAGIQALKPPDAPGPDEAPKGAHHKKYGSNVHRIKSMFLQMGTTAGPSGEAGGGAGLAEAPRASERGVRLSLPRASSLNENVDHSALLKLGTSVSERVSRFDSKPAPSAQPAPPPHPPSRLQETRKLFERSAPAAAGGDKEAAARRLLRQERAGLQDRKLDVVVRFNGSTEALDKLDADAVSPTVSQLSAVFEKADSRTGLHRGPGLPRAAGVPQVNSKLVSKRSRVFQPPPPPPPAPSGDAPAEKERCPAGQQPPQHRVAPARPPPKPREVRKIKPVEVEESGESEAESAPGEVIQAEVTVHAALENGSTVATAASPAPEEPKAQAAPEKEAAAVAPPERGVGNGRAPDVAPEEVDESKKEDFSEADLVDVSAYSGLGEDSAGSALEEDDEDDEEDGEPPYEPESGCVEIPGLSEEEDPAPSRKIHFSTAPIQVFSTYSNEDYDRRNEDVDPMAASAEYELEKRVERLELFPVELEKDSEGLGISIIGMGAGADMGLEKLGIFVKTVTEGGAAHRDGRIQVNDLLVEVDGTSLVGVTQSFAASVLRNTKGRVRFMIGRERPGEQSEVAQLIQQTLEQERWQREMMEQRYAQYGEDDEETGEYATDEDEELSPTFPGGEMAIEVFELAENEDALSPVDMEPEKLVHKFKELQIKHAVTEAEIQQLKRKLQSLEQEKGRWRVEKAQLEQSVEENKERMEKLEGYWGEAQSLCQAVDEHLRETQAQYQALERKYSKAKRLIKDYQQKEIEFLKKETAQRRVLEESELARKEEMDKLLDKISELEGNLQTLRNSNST

No constants are given. Whether binding was seen depends on the method and setting. In cells and extracts the contact can be indirect. Here binding means that the protein was enriched with, or labelled near, the bait; the list need not be complete.

As to “protein lysine methyltransferase suppressor of variegation 3-9 homologue 2 (SUV39H2), endogenous in nucleus pulposus cells (from UniProt Q9H5I1 1-410) (enzyme)”, in experiment [1], the binding result is recorded as “binds”.

Regarding “protein phosphatase 1 catalytic subunit alpha (PPP1CA), endogenous in nucleus pulposus cells (from UniProt P62136 1-330) (enzyme)”, the binding result in experiment [2] was “binds”.

On to “protein phosphatase 1 regulatory subunit 9B (PPP1R9B), endogenous in nucleus pulposus cells (from UniProt Q96SB3 1-817)”, for which, in experiment [3], the binding entry was “binds”.

For the origin of these results see paper PMC10482945.
